PubChem BioAssay AID602196 | INSERM | 2012
This is one part, drawn at random, of about 23,000 reagents tested. 455 of them (2%) count as active. 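Active includes both protection and sensitisation; some change values fall well beyond the stated -50 to +50 range.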 Not all columns of the deposit are shown. Not given: the amount of reagent.

Assay: 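Knock-downs that protect lung cancer cells from cisplatin or sensitise them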
Cell system: human A549 lung cancer cells
Knock-down reagent: siRNA pair against human genes
Time to read-out: 48 h transfection before cisplatin; time from cisplatin to read-out not stated
Challenge: cisplatin at a dose killing half of control-siRNA cells; exact dose and duration not given
Measured: 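Shift in cisplatin death relative to control siRNA, from -50 (all cells die) to +50 (no cells die); siRNAs harmful on their own scored 0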
Reading the numbers: two-siRNA summed score (-2 to +2): higher = both siRNAs protect from cisplatin killing; -2 means both sensitise
Call rule: 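siRNAs harmful alone (LDH or WST-1) get 0; others get +1 for less and -1 for more cisplatin killing; genes are active when the two siRNAs give the same sign, summing to ±2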
Meaning of the calls: active = both siRNAs shift cisplatin killing the same way; inactive = no consistent shift, or siRNA harmful alone

After knock-down of MYLK, the screen gave two-siRNA summed score (-2 to +2) = 0; inactive.
After knock-down of LOC400010 the results were two-siRNA summed score (-2 to +2) = 0; inactive.
Silencing of TAS2R5 came out at: two-siRNA summed score (-2 to +2) = 0; inactive.
After knock-down of GOSR1 the results were two-siRNA summed score (-2 to +2) = 0; inactive.
MROCKI showed two-siRNA summed score (-2 to +2) = 0; inactive.
With knock-down of ZNF461 the results were two-siRNA summed score (-2 to +2) = 0; inactive.
AKR1C4 scored two-siRNA summed score (-2 to +2) = 0; inactive.
Against SLC20A1, the entry reads two-siRNA summed score (-2 to +2) = 1; inactive.
Knock-down of AP1S2 came out at: two-siRNA summed score (-2 to +2) = 0; inactive.
Depletion of LOC339003 came out at: two-siRNA summed score (-2 to +2) = 0; inactive.
THOC2 scored two-siRNA summed score (-2 to +2) = 1; inactive.
After knock-down of SLCO1C1, the record shows two-siRNA summed score (-2 to +2) = 0; inactive.
CBX8 gave two-siRNA summed score (-2 to +2) = 1; inactive.
LOC145853 gave two-siRNA summed score (-2 to +2) = 0; inactive.
Against H2BC15 the deposit lists two-siRNA summed score (-2 to +2) = 0; inactive.
AKAP5 gave two-siRNA summed score (-2 to +2) = 0; inactive.
SKIC2 showed two-siRNA summed score (-2 to +2) = 1; inactive.

Ordered by “two-siRNA summed score (-2 to +2)” (descending): 5 of the entries above
SLC20A1: two-siRNA summed score (-2 to +2) = 1; outcome = inactive
THOC2: two-siRNA summed score (-2 to +2) = 1; outcome = inactive
AKR1C4: two-siRNA summed score (-2 to +2) = 0; outcome = inactive
AP1S2: two-siRNA summed score (-2 to +2) = 0; outcome = inactive
LOC339003: two-siRNA summed score (-2 to +2) = 0; outcome = inactive

Continued:
Against MRGPRD, the values are two-siRNA summed score (-2 to +2) = 0; inactive.
Depletion of RNASE9 gave: two-siRNA summed score (-2 to +2) = 1; inactive.
After knock-down of EDRF1-DT, the record shows two-siRNA summed score (-2 to +2) = 1; inactive.
LOC441099 gave two-siRNA summed score (-2 to +2) = 0; inactive.
After knock-down of ESRRA, the record shows two-siRNA summed score (-2 to +2) = 0; inactive.
Against LOC388799 the deposit lists two-siRNA summed score (-2 to +2) = 0; inactive.
Depletion of PGAP3 gave: two-siRNA summed score (-2 to +2) = 0; inactive.
After knock-down of PCDH1, the record shows two-siRNA summed score (-2 to +2) = -1; inactive.
Knock-down of SLC22A6 came out at: two-siRNA summed score (-2 to +2) = 0; inactive.
Silencing of FAM162A came out at: two-siRNA summed score (-2 to +2) = 0; inactive.
Against CFAP99, the values are two-siRNA summed score (-2 to +2) = 1; inactive.
With knock-down of LOC402577, the record shows two-siRNA summed score (-2 to +2) = 0; inactive.
For LOC151261, the entry reads two-siRNA summed score (-2 to +2) = 0; inactive.
Knock-down of RCN2 resulted in: two-siRNA summed score (-2 to +2) = 1; inactive.
